# The other results are listed elsewhere or left out.
# Target: T1, OsSMF1 (Oryza sativa, UniProt Q6ZLB0 1-436)
# T1 sequence: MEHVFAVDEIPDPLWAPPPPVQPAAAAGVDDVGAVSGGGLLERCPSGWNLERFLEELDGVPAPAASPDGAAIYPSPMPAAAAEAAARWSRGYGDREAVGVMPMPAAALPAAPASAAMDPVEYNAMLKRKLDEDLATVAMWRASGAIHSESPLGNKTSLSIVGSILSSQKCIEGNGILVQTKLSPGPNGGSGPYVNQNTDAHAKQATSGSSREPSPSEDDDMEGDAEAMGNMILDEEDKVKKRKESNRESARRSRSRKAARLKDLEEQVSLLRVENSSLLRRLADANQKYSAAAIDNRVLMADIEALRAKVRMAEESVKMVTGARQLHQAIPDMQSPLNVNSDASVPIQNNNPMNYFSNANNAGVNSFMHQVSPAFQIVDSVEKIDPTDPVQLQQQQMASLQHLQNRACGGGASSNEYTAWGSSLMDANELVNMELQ
# Assay: protein-binding microarray (RPBM); PBS, 2% BSA, 51.3 ng/ul salmon testes DNA, 50 uM zinc acetate, 200 nM TF, 25 C, 1 h; high values mean tight binding
# Settings: protein: recombinant; tags: N-terminal polyhistidine and DsRed monomer fusion (pET32a); chain copies: 2; label: CyDye5-dUTP incorporated in the synthesized complementary strand; 3' TTTTT single-stranded linker to array surface; dsDNA, one strand shown
# Outline: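 The binding signal for each feature is its fluorescence intensity in arbitrary units. An Axon 4000B scanner was used to read a custom Agilent array that had been made double-stranded with Cy5-dUTP primer extension, blocked with 2% BSA, incubated at 25 °C for 1 h with 200 nM protein in PBS, 2% BSA, salmon testes DNA and 50 µM zinc acetate, and washed. The protein was an N-terminal polyhistidine–DsRed transcription factor fusion from E. coli BL21-CodonPlus, purified on Ni–NTA.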
row,Sequence,binding signal
1,TTTGATGAGTTGACTTCGTTGACCCAACAGTGATGGCCGACGGAGTCACCTAGTGCAG,38700 fluorescence intensity (a.u.)
2,TCGGCGGTCGTGGAGGTGGTGGCAGGCGGTCGTGGCGGAGCGGAGTCACCTAGTGCAG,3990 fluorescence intensity (a.u.)
3,CTCAAATGTGTGTAGCACAAGTGTGACGTATGCACGTGTACGGAGTCACCTAGTGCAG,7300 fluorescence intensity (a.u.)
4,CGATCTGTAGTACGTTCCAAACTCTCGTCTCATGTCGTGTCGGAGTCACCTAGTGCAG,3840 fluorescence intensity (a.u.)
5,ACCCGTTCTCACACTTGTCAATTTGTCATTCCAAATATGCCGGAGTCACCTAGTGCAG,3290 fluorescence intensity (a.u.)
6,GGGGAGGCGGAAGGCGGTGCGGGGAGGCGGCGCTCGCTGACGGAGTCACCTAGTGCAG,3870 fluorescence intensity (a.u.)
7,ATACCGGTGCGTTACAACGAGGTGAATGTTATTTTAATTTCGGAGTCACCTAGTGCAG,25200 fluorescence intensity (a.u.)
8,TACTCACTCCCCTCAACTGCCAATTCCCCTCTCTCTCCTCCGGAGTCACCTAGTGCAG,3560 fluorescence intensity (a.u.)
9,AGAGGGATTACGAACTCGCAATGTCTGTTTGTACGATGCGCGGAGTCACCTAGTGCAG,23700 fluorescence intensity (a.u.)
10,TAATCCTGTCACGTTTGCAGCCTGCCATCAACTGAAATTGCGGAGTCACCTAGTGCAG,3330 fluorescence intensity (a.u.)
11,GATGTTAATGTGCGTATGTGTCACATACCTGAAATGTTAGCGGAGTCACCTAGTGCAG,3650 fluorescence intensity (a.u.)
12,TCATGCGCCCAGCTGCACTGAAGTCAACTCCAACCCATGTCGGAGTCACCTAGTGCAG,31200 fluorescence intensity (a.u.)
13,CTCCGCAGAAGCAGCAGAACCACCACCACGCGGCGCCCTTCGGAGTCACCTAGTGCAG,3340 fluorescence intensity (a.u.)
14,TTCACAAAACATGGTGCCATCTTGCCAACACAACCCTTGTCGGAGTCACCTAGTGCAG,3200 fluorescence intensity (a.u.)
15,CTCTCGAGCATGAAAACGGGCCAAAATTTACCAGGTTTACCGGAGTCACCTAGTGCAG,3560 fluorescence intensity (a.u.)
16,GCGGCGAACATCCAGCTGTCGTCATCGAGCGACCTGACCTCGGAGTCACCTAGTGCAG,5420 fluorescence intensity (a.u.)
17,TGTAGCTAGTGGAATTCAATTTGGTGATGGTTCAAATAAACGGAGTCACCTAGTGCAG,20600 fluorescence intensity (a.u.)
18,CCTACGACTCATTACATCCACACGCAAGCAAAATCTCACTCGGAGTCACCTAGTGCAG,5150 fluorescence intensity (a.u.)
19,AAGTACACAGAGTTCAGATTTATCATCGTCGCCGACGGGGCGGAGTCACCTAGTGCAG,14200 fluorescence intensity (a.u.)
20,GTGAGGCGCCTTCTGGAAAATTCCAGCGCTGACAGATGGGCGGAGTCACCTAGTGCAG,28600 fluorescence intensity (a.u.)
21,AGAGAGCCATAGGGTTTGTTCACTTTATTATCAAAATAATCGGAGTCACCTAGTGCAG,27200 fluorescence intensity (a.u.)

# Reprinted at random: 3 records from the list
row,Sequence,binding signal
1,TTTGATGAGTTGACTTCGTTGACCCAACAGTGATGGCCGACGGAGTCACCTAGTGCAG,38700 fluorescence intensity (a.u.)
19,AAGTACACAGAGTTCAGATTTATCATCGTCGCCGACGGGGCGGAGTCACCTAGTGCAG,14200 fluorescence intensity (a.u.)
16,GCGGCGAACATCCAGCTGTCGTCATCGAGCGACCTGACCTCGGAGTCACCTAGTGCAG,5420 fluorescence intensity (a.u.)

# The list goes on.

row,Sequence,binding signal
1,CGACGCTTCCGTGGCTCCTCCTCCTCGCGCCCTCGCTGCGCGGAGTCACCTAGTGCAG,4010 fluorescence intensity (a.u.)
2,GCACCAGCGGTCCTCAAACTTGTAAGGGTGTGTCATCTAGCGGAGTCACCTAGTGCAG,3660 fluorescence intensity (a.u.)
3,GACCTCGCCTGCCGCCATCGTCGCTGACATCATCACCATCCGGAGTCACCTAGTGCAG,13700 fluorescence intensity (a.u.)
4,CAACCAGCGTGATAGTTTTGTCCTGTCACGTGGCGTGACCCGGAGTCACCTAGTGCAG,5520 fluorescence intensity (a.u.)
5,ATATATGGTATAGTATCTCTCGAGTCACACTTGACAGTGACGGAGTCACCTAGTGCAG,31500 fluorescence intensity (a.u.)
6,TCGGGCCCACTAAAACTTCGTCATCACGGATACACTATTTCGGAGTCACCTAGTGCAG,4780 fluorescence intensity (a.u.)
7,GAGGAGGAGGAACTCACCGATCTGGGCGGGTGCAGCGCAACGGAGTCACCTAGTGCAG,3200 fluorescence intensity (a.u.)
8,GAAGATGATGACATCCGACATGCCTATGATTTTCACTCGACGGAGTCACCTAGTGCAG,3520 fluorescence intensity (a.u.)
9,GGCTGTGACAGCTTGCGCCAGTTTGGTTCGGAACAATTTGCGGAGTCACCTAGTGCAG,3360 fluorescence intensity (a.u.)
10,GGGAGTGGGCCGGCCCAGCTGAGAGGAGGGCGGGCGCGCGCGGAGTCACCTAGTGCAG,3180 fluorescence intensity (a.u.)
11,TCCCGTGTTCTTGTTCTTCTCTGGTGATCATCATCATCATCGGAGTCACCTAGTGCAG,3980 fluorescence intensity (a.u.)
12,GTAGCCAAGTACATTGTCGGTGTCTGCCGTCTGCGTGGCACGGAGTCACCTAGTGCAG,6760 fluorescence intensity (a.u.)
13,TTCTACGGACCATTCCATATTGACACGTAGCCTGATGCCTCGGAGTCACCTAGTGCAG,9950 fluorescence intensity (a.u.)
14,TCCTATACTTAATTACATGACATGTCCTAACAGAATTCTTCGGAGTCACCTAGTGCAG,3320 fluorescence intensity (a.u.)
15,AAACAAGGACAATTAATTAAAAGGACTAAAGGGATGAAAACGGAGTCACCTAGTGCAG,36300 fluorescence intensity (a.u.)
16,AAGTAGCAAGTAGAGAAGCTGCATTGTCATAGCAAAACCGCGGAGTCACCTAGTGCAG,3530 fluorescence intensity (a.u.)
17,GGTCCCGCCGTGCTTAGCCGATTACTATTGGGTATGTGGTCGGAGTCACCTAGTGCAG,4570 fluorescence intensity (a.u.)
18,GTGAATACATGAAGCCTGAAGTTTGTTTGTCAGCAACGGGCGGAGTCACCTAGTGCAG,3310 fluorescence intensity (a.u.)
19,ACTCGCCTGGAAACCGTGAGATGAATTTATTAAGCCTAATCGGAGTCACCTAGTGCAG,3930 fluorescence intensity (a.u.)
20,AAACCCTCGCCACCACGCGTCTCCGCCTCCGGCGGCGGCGCGGAGTCACCTAGTGCAG,3140 fluorescence intensity (a.u.)
21,GGTCCGCGACACTACTTAGATGTGCACACGAATGCCCTAGCGGAGTCACCTAGTGCAG,3430 fluorescence intensity (a.u.)

# Source: PMC7819943, “Rice protein-binding microarrays: a tool to detect cis-acting elements near promoter regions in rice”
